From the supplement of paper PMC7666118
This is one part of the list.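 The calls were made as follows: active = dose-dependent thermal stabilisation significant by F-test of dose-response against flat model at 10% FDR; inactive = not significant.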

Molecular target: HSP90AA1 (UniProt P07900)
Test: dose-dependent thermal stabilisation call (2D-TPP, DLPTP, 10% FDR) (binary (1 = stabilised)); higher = stabilised by the compound
Details: system: Jurkat gel-filtered lysate; concentration range 1-500 µM
Method: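 2D thermal proteome profiling in gel-filtered Jurkat E6.1 lysate (2 mg/ml) treated with NaGTP (0, 1, 10, 100, 500 uM) for 10 min at room temperature, then heated 3 min at one of 12 temperatures (42-63.9 C). Soluble protein was quantified by TMT10 MS. The value is the DLPTP call of the paper: dose-dependent thermal stabilisation over all temperatures at 10% FDR (F-test of a dose-response against a flat model); one experiment, one call per tested protein.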

Compound	dose-dependent thermal stabilisation call
Nc1nc2c(ncn2[C@@H]2O[C@H](COP(=O)(O)OP(=O)(O)OP(=O)(O)O)[C@@H](O)[C@H]2O)c(=O)[nH]1	inactive: 0
